Measurements published in article PMC2935968.
Where a chain is given by its changes, count along the chain named. In names and notes the source's numbering stands. These are yes or no findings as the source states them, for the method shown. Some binding calls cover weakened binding; strength is not graded here. For some of these results: Tags and fused reporters may be left off the sequences shown. Blank lines part the entries; values can stand above or below the binder they belong to.

Experiments:
[1] = molecular target: Hsp90 (not stated (Arabidopsis, H. vulgare or T. aestivum constructs)) (UniProt Q7XJ80); assay: pull-down; GST-Sgt1 as bait, Hsp90 and a Rar1 construct or mutant both present; both purified
[2] = molecular target: Hsp90 (not stated (Arabidopsis, H. vulgare or T. aestivum constructs)) (UniProt Q7XJ80); assay: pull-down; GST-Rar1 as bait, Hsp90, increasing amounts of untagged Rar1 in competition; both purified
[3] = molecular target: T1, GST-Rar1 (wild type) (Arabidopsis thaliana), Q9SE33; assay: as above; details: remark: other sources report otherwise
T1 chain: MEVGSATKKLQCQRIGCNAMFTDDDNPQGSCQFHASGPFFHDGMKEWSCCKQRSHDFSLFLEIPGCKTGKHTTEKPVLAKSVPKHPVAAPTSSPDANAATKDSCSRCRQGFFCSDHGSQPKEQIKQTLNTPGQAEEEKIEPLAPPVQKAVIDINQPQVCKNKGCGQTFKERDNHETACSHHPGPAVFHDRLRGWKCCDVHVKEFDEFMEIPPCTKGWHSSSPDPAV

[4] = molecular target: T1, GST-Rar1 (wild type) (Arabidopsis …); assay: pull-down; GST-Rar1 as bait, Hsp90, untagged Rar1 and Sgt1-CS present; both purified; details: remark: other sources report otherwise
[5] = substrate: T2, CS domain of cress (Arabidopsis thaliana) Sgt1a (Arabidopsis thaliana) (UniProt Q9SUR9); assay: crystal structure; Hsp90 N domain, Sgt1a CS domain and Rar1 CHORDII domain combined 1:1:1 with 5 mM ADP; crystals at 20°C from 100 mM HEPES pH 7.5, 23% w/v PEG5000 MME; heterohexameric ring; 2.2 Å; both purified
T2 sequence: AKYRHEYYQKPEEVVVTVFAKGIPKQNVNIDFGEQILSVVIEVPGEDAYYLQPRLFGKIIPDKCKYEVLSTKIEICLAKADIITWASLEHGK

B1: Rar1 I153Q (prey of GST-Sgt1) (protein, UniProt Q9SE33 1-226)
chain: T1 chain with I153Q
binding [1]: binds

B3: Rar1 W217T (prey of GST-Sgt1) (protein, UniProt Q9SE33 1-226)
chain: T1 chain with W217T
binding [1]: binds

B4: Rar1 E170K (prey of GST-Sgt1) (protein, UniProt Q9SE33 1-226)
chain: T1 chain with E170K
binding [1]: binds

Other lines, results leading:

binding [2]: binds
B2: Rar1 (wild type, not GST-tagged) (protein, UniProt Q9SE33 1-226)
chain: T1 chain

binding [3]: no binding | binding [4]: no binding
B5: Rar1 (wild type, not GST-tagged), Q9SE33 1-226 (protein)
chain: T1 chain

binding [5]: binds
B6: CHORDII domain of cress (Arabidopsis thaliana) Rar1 (domain or fragment, UniProt Q9SE33 149-221)
chain: AVIDINQPQVCKNKGCGQTFKERDNHETACSHHPGPAVFHDRLRGWKCCDVHVKEFDEFMEIPPCTKGWHSSS
